No constants are given. Whether binding was seen depends on the method and setting. Some results given as binding are weak or reduced against the parent protein; the word gives no strength.
Tests used:
Test in all cases: peptide or protein array; HuProt human proteome microarray; 5 ug/5 ml biotin-labelled LUBAC or OTULIN in solution, 1 h at room temperature; Cy5-streptavidin, scanned at 635 nm; BSA as negative control; hits: Z-score >= 3 and I_(Mean_Ratio) >= 1.4; both purified
MBP (human) = MBP (human) (UniProt P02686)
SSBP1 (human) = target: T1, SSBP1 (human) (UniProt Q04837)
T1 sequence: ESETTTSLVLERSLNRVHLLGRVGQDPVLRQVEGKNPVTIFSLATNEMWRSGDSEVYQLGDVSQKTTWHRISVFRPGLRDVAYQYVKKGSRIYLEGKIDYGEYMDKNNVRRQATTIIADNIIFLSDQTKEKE

Amino acid sequences for entries named in this document (tags omitted).
UniProt P02686: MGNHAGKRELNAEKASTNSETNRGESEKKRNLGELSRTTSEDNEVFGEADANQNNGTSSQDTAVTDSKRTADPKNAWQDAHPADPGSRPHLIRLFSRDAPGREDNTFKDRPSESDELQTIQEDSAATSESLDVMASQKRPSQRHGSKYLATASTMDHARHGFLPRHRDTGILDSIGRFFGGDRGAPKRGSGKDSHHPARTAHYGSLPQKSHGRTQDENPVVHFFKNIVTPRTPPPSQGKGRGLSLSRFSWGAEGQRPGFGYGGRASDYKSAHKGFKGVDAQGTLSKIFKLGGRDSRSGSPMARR
UniProt P04406: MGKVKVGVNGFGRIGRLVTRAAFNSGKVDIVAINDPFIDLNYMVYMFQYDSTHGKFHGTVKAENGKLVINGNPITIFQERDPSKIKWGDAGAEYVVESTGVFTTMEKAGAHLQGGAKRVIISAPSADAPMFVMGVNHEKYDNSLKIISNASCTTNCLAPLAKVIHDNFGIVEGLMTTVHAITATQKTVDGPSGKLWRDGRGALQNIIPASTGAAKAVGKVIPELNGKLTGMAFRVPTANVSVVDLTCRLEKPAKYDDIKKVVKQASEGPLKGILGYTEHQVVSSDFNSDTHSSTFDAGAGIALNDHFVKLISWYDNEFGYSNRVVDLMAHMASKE
UniProt Q14103: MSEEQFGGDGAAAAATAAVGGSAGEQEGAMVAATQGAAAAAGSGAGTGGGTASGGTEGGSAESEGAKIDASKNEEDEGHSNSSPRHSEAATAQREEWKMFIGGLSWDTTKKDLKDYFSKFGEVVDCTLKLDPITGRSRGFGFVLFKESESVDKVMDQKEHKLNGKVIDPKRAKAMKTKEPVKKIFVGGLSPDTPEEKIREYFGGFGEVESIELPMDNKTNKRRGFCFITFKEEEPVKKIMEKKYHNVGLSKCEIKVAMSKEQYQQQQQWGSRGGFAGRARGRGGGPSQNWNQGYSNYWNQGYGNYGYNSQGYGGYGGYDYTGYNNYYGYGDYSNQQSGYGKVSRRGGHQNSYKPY
UniProt Q9BRJ7: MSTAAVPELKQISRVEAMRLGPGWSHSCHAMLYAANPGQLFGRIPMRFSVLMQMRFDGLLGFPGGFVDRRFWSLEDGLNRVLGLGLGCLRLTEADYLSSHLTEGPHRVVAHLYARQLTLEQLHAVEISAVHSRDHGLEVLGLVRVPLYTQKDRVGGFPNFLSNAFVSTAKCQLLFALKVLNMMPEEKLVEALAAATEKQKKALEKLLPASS

A1CF (human) = target: T2, A1CF (human) (UniProt Q9NQ94)
T2 sequence: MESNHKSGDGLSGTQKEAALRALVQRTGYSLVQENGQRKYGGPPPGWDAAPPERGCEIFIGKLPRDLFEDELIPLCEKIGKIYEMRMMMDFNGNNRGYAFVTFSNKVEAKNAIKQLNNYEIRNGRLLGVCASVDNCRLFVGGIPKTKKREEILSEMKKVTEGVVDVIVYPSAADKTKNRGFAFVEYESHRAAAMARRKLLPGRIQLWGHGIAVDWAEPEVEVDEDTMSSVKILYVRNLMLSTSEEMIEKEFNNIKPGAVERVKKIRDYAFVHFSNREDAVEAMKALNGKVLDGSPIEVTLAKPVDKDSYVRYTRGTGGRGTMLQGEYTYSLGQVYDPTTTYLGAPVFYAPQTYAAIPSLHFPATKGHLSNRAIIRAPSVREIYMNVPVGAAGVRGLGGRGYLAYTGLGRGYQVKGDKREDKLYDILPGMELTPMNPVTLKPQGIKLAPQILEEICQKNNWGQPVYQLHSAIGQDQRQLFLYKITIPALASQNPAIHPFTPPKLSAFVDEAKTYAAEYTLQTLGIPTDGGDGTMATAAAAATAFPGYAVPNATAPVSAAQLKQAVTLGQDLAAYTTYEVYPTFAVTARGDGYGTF

C21orf59 (human) = target: T3, C21orf59 (human) (UniProt P57076)
T3 sequence: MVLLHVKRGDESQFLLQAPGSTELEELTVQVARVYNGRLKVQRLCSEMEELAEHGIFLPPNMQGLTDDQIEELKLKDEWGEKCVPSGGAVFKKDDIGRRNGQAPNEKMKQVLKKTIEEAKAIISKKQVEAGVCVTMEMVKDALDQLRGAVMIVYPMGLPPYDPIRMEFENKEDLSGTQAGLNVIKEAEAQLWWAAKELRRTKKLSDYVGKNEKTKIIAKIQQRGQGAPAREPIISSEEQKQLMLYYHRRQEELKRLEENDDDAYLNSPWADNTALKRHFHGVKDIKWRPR

GAPDH (human) = GAPDH (human) (UniProt P04406)
HNRNPD (human) = HNRNPD (human) (UniProt Q14103)
NUDT16L1 (human) = NUDT16L1 (human) (UniProt Q9BRJ7)
SATB1 (human) = target: T4, SATB1 (human) (UniProt Q01826)
T4 sequence: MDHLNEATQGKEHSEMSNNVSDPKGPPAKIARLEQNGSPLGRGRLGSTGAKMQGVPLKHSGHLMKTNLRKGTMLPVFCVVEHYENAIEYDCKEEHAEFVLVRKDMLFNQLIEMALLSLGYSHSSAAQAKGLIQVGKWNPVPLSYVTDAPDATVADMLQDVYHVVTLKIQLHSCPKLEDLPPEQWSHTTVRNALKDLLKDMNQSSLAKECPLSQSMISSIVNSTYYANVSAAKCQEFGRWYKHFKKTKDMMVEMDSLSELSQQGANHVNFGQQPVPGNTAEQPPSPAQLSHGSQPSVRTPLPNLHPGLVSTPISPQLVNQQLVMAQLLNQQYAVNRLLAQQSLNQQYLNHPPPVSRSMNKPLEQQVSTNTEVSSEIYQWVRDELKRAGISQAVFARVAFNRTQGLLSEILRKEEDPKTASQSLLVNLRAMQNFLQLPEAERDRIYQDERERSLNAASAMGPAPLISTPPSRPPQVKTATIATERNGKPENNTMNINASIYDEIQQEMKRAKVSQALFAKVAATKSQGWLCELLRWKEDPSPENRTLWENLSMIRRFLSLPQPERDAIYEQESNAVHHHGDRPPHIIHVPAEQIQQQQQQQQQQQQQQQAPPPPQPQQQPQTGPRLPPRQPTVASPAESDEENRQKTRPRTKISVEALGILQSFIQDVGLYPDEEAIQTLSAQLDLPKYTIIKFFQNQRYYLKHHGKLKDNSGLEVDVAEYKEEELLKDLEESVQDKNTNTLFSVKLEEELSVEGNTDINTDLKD

Measured: binding

OTULIN (OTU deubiquitinase with linear linkage specificity, FAM105B), His-tagged, biotin-labelled (from UniProt Q96BN8 1-352) (enzyme)
binds: MBP (human) | SSBP1 (human)

linear ubiquitin chain assembly complex (LUBAC), purified as HIS-tagged HOIP with the subunit HOIL-1, biotin-labelled (from UniProt Q96EP0 1-1072; Q9BYM8 1-510)
binds: all assays above

Source: paper PMC8274477
